Measured values: PubChem BioAssay AID493014 (National Center for Advancing Translational Sciences (NCATS), 2011)
The whole screen tested about 340,000 compounds, of which about 170 (0.05%) were called active. Inconclusive results, whose numbers are uncertain, are shown with a selection of clear calls. The call rests on the fitted dose curve; in most records, active means well fitted inhibition curve with a large enough effect in the signal ratio, with a control signal flat (not every such curve was filed as active); inconclusive means small, poorly fitted or top-dose-only effect, or effect the other way, or a change in a side signal; inactive means flat fitted curve, though single readings scatter; the % refers to the signal ratio. Potencies beside an inconclusive call are fits to weak or partial responses and may not hold up.

Assay: qHTS Assay to Find Inhibitors of Chronic Active B-Cell Receptor Signaling;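 on activity change, negative = inhibition: plate controls were basal doxycycline-induced cells for no effect and cells given 10 µM MG132 for full effect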
Details: ABC-DLBCL IkBa-CBG/CBR reporter, luminescence ratio (green luciferase fused to IkBa over red control in TMD8 lymphoma cells), 4 h; activity change, negative = inhibition: at 46.1 µM (top of the series)
Procedure, shortened: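 TMD8 human ABC-DLBCL cells with doxycycline-inducible IκBα–green luciferase fusion and unfused red luciferase, in 0.5% FBS medium; compounds up to 46 uM, 4 h at 37C. Green/red luminescence ratio, filter-overlap corrected, fitted to concentration-response curves.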
Potency means the concentration at half of the fitted maximal effect.

Row | SMILES | activity change, negative = inhibition | Potency
1 | COc1ccc(S(=O)(=O)N(Cc2cccs2)C2CCCC2)cc1 | inconclusive: -1.96% | 
2 | CCOC(=O)c1cc(NC(=O)CC(C)(C)CC(=O)O)ccc1N1CCCCC1 | inconclusive: 5.06% | 
3 | COc1ccc(N=c2oc3cc(O)ccc3cc2C(=O)NCC2CCCO2)c(OC)c1 (centres undefined) |  | inconclusive: 2.82 µM [falling, single point]
4 | Cc1cccc(-c2noc(CNC(=O)c3ccoc3C)n2)c1 | inconclusive: 9.04% | 
5 | Cc1cc(C)nc(SCc2nnc(SCc3ccccc3Cl)o2)n1 | inconclusive: -0.708% | 
6 | CSc1cccc(N2CC(C(=O)NCCC3=CCCCC3)CC2=O)c1 (centres undefined) | inactive: 8.23% | 
7 | O=C(CCCCCNC(=O)c1ccccc1Br)N=Nc1c(O)[nH]c2ccccc12 | inactive: -2.91% | 
8 | Cc1ccc(S(=O)(=O)N2CCC(=O)N(C(COCc3ccccc3)Cc3ccccc3)CC2)cc1 (centres undefined) | inconclusive: 4.5% | 
9 | COc1ccc(NC(=O)c2ccc3nccnc3c2)cc1 |  | inconclusive: 23.1 µM [falling, single point]
10 | CCC(NC(=O)c1ccccc1NC(=O)c1ccc(C)cc1)C(=O)O (centres undefined) |  | inconclusive: 16.4 µM [falling, partial curve]
11 | Cn1c(SCC(=O)Nc2cccc(S(=O)(=O)N3CCOCC3)c2)nnc1-c1ccncc1 | inconclusive: 6.42% | 
12 | Cc1c(Cl)cccc1NC(=S)N(Cc1cccnc1)Cc1ccccc1Cl | inconclusive: -0.385% | 
13 | COc1ccc(/C=N/S(=O)(=O)c2cccs2)cc1 | inactive: 11% | 
14 | CCOc1cc(/C=N/OC(C)=O)ccc1OCc1ccccc1 | inconclusive: -2.43% | 
15 | O=C(Nc1nc(-c2cccs2)cs1)C1=COCCO1 | inconclusive: -5.97% | 
16 | N/C(=N\OC(=O)c1ccc2c(c1)OCO2)c1cccc([N+](=O)[O-])c1 | inactive: -5.38% | 
17 | COc1ccc(NC(=O)c2ccc(NCCCN3CCOCC3)c([N+](=O)[O-])c2)cc1 |  | inconclusive: 20.6 µM [falling, partial curve, poor fit]
18 | CCOC(=O)c1sc(N)nc1-c1ccccc1 | inconclusive: 14% | 
19 | COC(=O)CNC(=O)c1cccc(F)c1 | inactive: 18.4% | 
20 | COc1cc(NC(=O)C2CCN(c3cnccn3)CC2)cc(OC)c1OC | inconclusive: -1.84% | 
21 | CC(C)CCNC(=O)CCCOc1ccccc1 | inconclusive: 18.6% | 

Row | SMILES | activity change, negative = inhibition | Potency
22 | COc1ccc2ccccc2c1CNCc1ccccn1 |  | inconclusive: 3.26 µM [rising, full curve, poor fit]
23 | O=C(CCCOc1ccc(Cl)cc1)NCC1CCCO1 (centres undefined) | inconclusive: 0.217% | 
24 | Cc1nc(SCc2nc3ccccc3[nH]2)c2oc3cc(Br)ccc3c2n1 | inconclusive: -23.2% | 
25 | CCc1nnc(SCC(=O)Nc2ccc(N3CCOCC3)cc2)o1 | inconclusive: -2.87% | 
26 | CC(=O)Nc1ccc(NC(=O)C2CC(=O)Nc3ncnn32)cc1 (centres undefined) | inactive: -0.915% | 
27 | CCOc1ccc2oc(C(=O)OCC(=O)NC(=O)NC)c(C)c2c1 | inactive: 0.34% | 
28 | O=C(O)c1ccc(CSCc2ccccc2F)o1 | inconclusive: 6.46% | 
29 | COC(=O)c1sccc1NC(=O)C1CC=CCC1C(=O)O (centres undefined) | inconclusive: -1.28% | 
30 | O=C(N/N=C/c1ccc(O)c([N+](=O)[O-])c1)C1CC1(c1ccccc1)c1ccccc1 (centres undefined) |  | inconclusive: 6.31 µM [falling, single point]
31 | O=C1S/C(=C\c2ccc(N3CCOCC3)o2)C(=O)N1Cc1ccc(F)cc1 | inactive: 2.87% | 
32 | CCCCC(=O)NS(=O)(=O)c1ccc(N=NN(CC)CC)cc1 | inactive: 0.176% | 
33 | COc1ccc(S(=O)(=O)NCC2CCCN(Cc3ccc(OC)cc3F)C2)cc1 (centres undefined) | inactive: 3.28% | 
34 | CC(OC(=O)CNC(=O)COc1ccccc1)C(=O)N(C)Cc1ccccc1 (centres undefined) | inconclusive: -0.58% | 
35 | CC(=O)NCCn1c(SCc2ccccc2C)nc2ccccc2c1=O | inconclusive: -11.4% | 
36 | O=C(NNC(=O)c1ccccc1F)c1cccc(Cl)c1 |  | inconclusive: 31.6 µM [rising, single point]
37 | Cc1ccc(/C=C\c2nccc3c2[nH]c2ccccc23)cc1 | inconclusive: -2.52% | 
38 | CCOc1cc(N2CCOCC2)c(OCC)cc1NC(=O)c1cnccn1 | inconclusive: -2.71% | 
39 | Cc1ccc(CC(=O)NCc2ccc(Cl)cc2)cc1 | inactive: 6.22% | 
40 | CCOC(=O)COn1c(-c2cccc(Cl)c2)nc2ccc([N+](=O)[O-])cc21 | inactive: -3.89% | 
41 | O=C(CCC(=O)N1CCN(S(=O)(=O)c2ccc([N+](=O)[O-])cc2)CC1)N1CCOCC1 | inconclusive: 8.91% | 
42 | Cc1ccc(C(=O)CN2/C(=C(\O)c3ccccc3)C(=O)c3ccccc3S2(=O)=O)c(C)c1 | inconclusive: 1.43% | 

Single records (already shown).
`O=C(CCCOc1ccc(Cl)cc1)NCC1CCCO1` (centres undefined) reads activity change, negative = inhibition: inconclusive: 0.217%
`Cc1ccc(/C=C\c2nccc3c2[nH]c2ccccc23)cc1` reads activity change, negative = inhibition: inconclusive: -2.52%
`CC(=O)Nc1ccc(NC(=O)C2CC(=O)Nc3ncnn32)cc1` (centres undefined) reads activity change, negative = inhibition: inactive: -0.915%
`Cc1ccc(CC(=O)NCc2ccc(Cl)cc2)cc1` reads activity change, negative = inhibition: inactive: 6.22%

(continued)

Row | SMILES | activity change, negative = inhibition | Potency
43 | c1ccc(CCn2c(SCc3ccccc3)nnc2-c2ccncc2)cc1 | inconclusive: 10.6% | 
44 | CCCn1c(SCC(=O)c2cc(OC)ccc2OC)nnc1-c1ccco1 |  | inconclusive: 20 µM [falling, single point]
45 | CCOC(=O)c1c(NC(=S)Nc2cccc(C)c2)sc2c1CC(C)(C)SC2 |  | inconclusive: 8.2 µM [rising, partial curve]
46 | NS(=O)(=O)c1ccc(N=NN2CCCCC2)cc1 | inactive: 11.5% | 
47 | CN(C)CCCNC(=O)/C(=C\c1ccc(-c2cccc([N+](=O)[O-])c2)o1)NC(=O)c1ccccc1 |  | inconclusive: 20 µM [falling, partial curve, poor fit]
48 | Cc1cc(C(=O)NNC(=S)NC2CCCCC2)cs1 |  | inconclusive: 17.8 µM [falling, partial curve]
49 | Cc1ccccc1CSc1nsc(N)n1 |  | inconclusive: 2.82 µM [falling, partial curve, poor fit]
50 | O=C(NCCCN1CCOCC1)C1COc2ccccc2O1 (centres undefined) | inconclusive: 5.54% | 
51 | O=C(CN1CCOCC1)Nc1ccc(Cl)c(Cl)c1 | inconclusive: 11.2% | 
52 | C/C(N)=C(/C#N)C(=O)COC(=O)CC1CCCC1 | inactive: 3.17% | 
53 | COc1ccc2nc(Nc3ccccc3)sc2c1 |  | inconclusive: 31.6 µM [falling, single point]
54 | Cc1ccc(N2CN=C(c3ccccc3)NC2=S)cc1 |  | inconclusive: 25.9 µM [falling, partial curve]
55 | COc1ccc(Br)cc1C1Nc2cccc3cccc(c23)N1 | inconclusive: -10.9% | 
56 | Cn1c(NC2CCCCC2)cc(=O)n(C)c1=O | inactive: 7.68% | 
57 | CCC(=O)Nc1ccccc1C(=O)N1CCCC1 | inconclusive: 3.85% | 
58 | CC(C)(C)c1ccc(C(=O)NC(=S)NCc2cccnc2)cc1 |  | inconclusive: 20.6 µM [falling, partial curve, poor fit]
59 | O=S(=O)(Cc1ccccc1)c1cnc2ccccc2n1 |  | inconclusive: 2.31 µM [rising, full curve, poor fit]
60 | COc1cccc(/C=C2\SC(=S)N(C(C)C(=O)NC3C=CS(=O)(=O)C3)C2=O)c1 (centres undefined) |  | inconclusive: 15.8 µM [falling, partial curve]
61 | CCOc1ccccc1NC(=O)c1nnn(-c2ccc3c(c2)OCCO3)c1N |  | inconclusive: 10 µM [falling, partial curve]
62 | Cc1cc(=O)n2[nH]c(N)c(N=Nc3ccccc3F)c2n1 | inconclusive: -5.06% | 
63 | Cc1ccc(S(=O)(=O)N(CC(=O)N=Nc2c(O)[nH]c3ccccc23)c2ccc(C)c(C)c2)cc1 | inconclusive: 14.4% | 

Row | SMILES | activity change, negative = inhibition | Potency
64 | Nc1nn(-c2ccccc2)c(N)c1N=Nc1cccc(F)c1 |  | inconclusive: 31.6 µM [falling, partial curve]
65 | CC(C)(C)c1ccc(OC(=O)c2ccccc2)cc1 | inconclusive: 6.73% | 
66 | Cc1ccc(NC(=O)c2cccs2)cc1 |  | inconclusive: 23.1 µM [falling, single point]
67 | c1ccc(N2CCN(c3nc4ccccc4[nH]3)CC2)nc1 |  | inconclusive: 35.5 µM [falling, single point]
68 | Cn1nnnc1Sc1ncnc2scc(-c3cc4ccccc4o3)c12 | inconclusive: 27% | 
69 | Cn1c(=O)n(C)c2cc(/C=C(/C#N)C(=O)NCc3ccco3)ccc21 | inactive: -6.36% | 
70 | CC1CCC/C(=N/NC(=O)c2ccccc2-n2cccc2)C1 (centres undefined) | inactive: -1.1% | 
71 | c1ccc(Cn2c(SCc3nc4ccccc4s3)nnc2-c2ccco2)cc1 | inactive: 1.87% | 
72 | CCN(CC)C(=O)CSc1nc2ccsc2c(=O)n1Cc1ccccc1Cl | inconclusive: 14.5% | 
73 | CCS(=O)(=O)n1nc(NCc2cccc(OC)c2)nc1NCc1cccc(OC)c1 |  | inconclusive: 16.4 µM [falling, single point]
74 | COc1cc(CNCc2ccccn2)ccc1OCc1ccc(Cl)cc1Cl | inactive: 1.44% | 
75 | COc1c(O)ccc2cnn(-c3ccccc3C)c(=O)c12 | inactive: 1.39% | 
76 | Cc1ccc(C(=O)c2no[n+]([O-])c2C(=O)c2ccc(C)cc2)cc1 | inactive: 1.35% | 
77 | Oc1ccc(Br)cc1CNc1cccc2cccnc12 | inactive: 1.04% | 
78 | CC(CN1CCOCC1)OC(=O)/C=C/c1ccccc1 (centres undefined) | inconclusive: 6.61% | 
79 | COC(=O)c1c(-c2c(Cl)cccc2Cl)noc1NC(=O)NN1CCOCC1 |  | inconclusive: 28.2 µM [falling, partial curve, poor fit]
80 | COc1ccc(NC(=O)COC(=O)c2ccc(-n3cnnn3)cc2)c([N+](=O)[O-])c1 | inconclusive: 3.11% | 
81 | O=S1(=O)C=C(Oc2ccc3ccccc3c2)c2ccccc21 |  | inconclusive: 11.2 µM [falling, partial curve]
82 | COc1ccc(C(=O)NNC(=O)CCn2nnc(-c3ccc(C)cc3)n2)cc1OC |  | inconclusive: 35.5 µM [falling, single point]
83 | COc1ccc(N2CCN(C(=O)CCc3ccc(S(=O)(=O)NC(C)(C)C)cc3)CC2)cc1 | inactive: -12.5% | 
84 | NC(=O)Nc1ccc(Oc2ncc(C(F)(F)F)cc2Cl)cc1 | inconclusive: 7.79% | 
